Chains of the proteins cited; added tags and fusions are not shown. Lines headed by an entry give the natural chain unless they say otherwise; changes in a name come on top.
UniProt Q96KB5: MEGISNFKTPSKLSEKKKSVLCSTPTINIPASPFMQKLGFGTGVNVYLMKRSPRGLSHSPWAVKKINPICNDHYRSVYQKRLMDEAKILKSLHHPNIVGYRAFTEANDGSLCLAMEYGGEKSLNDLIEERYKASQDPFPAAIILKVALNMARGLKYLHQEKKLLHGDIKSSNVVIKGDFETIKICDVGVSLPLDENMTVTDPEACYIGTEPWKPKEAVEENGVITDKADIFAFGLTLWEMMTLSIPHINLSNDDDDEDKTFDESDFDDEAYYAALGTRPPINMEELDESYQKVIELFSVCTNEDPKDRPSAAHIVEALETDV

Where a name gives a salt, the structure may show the parent alone. The list shows a part of the results. The calls rarely recur for the same compound in another form.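 Kinases, fused to nanoluciferase, were expressed in K562 cells; luminescence was measured every 4 h from 2 to 18 h as percent of control (DMSO = 100%, positive control = 0%). A time point is decreased if signal falls significantly (2 sigma). Hits were called by the authors by a rule that is not shown; the count of time points alone does not decide it.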
The compounds below were run against PBK (UniProt Q96KB5) (assay: number of time points (of 5) at which kinase-Nluc abundance scored as decreased, DMSO-normalised (count); higher = more persistent destabilization). Conditions: K562; 2-18 h.
In the case of C[C@@H](c1ccc2nccn2c1)n1nnc2ncc(-c3cnn(C)c3)nc21 [Savolitinib] (10 µM), the “number of time points” value was 0.
For CN1C(=O)C(Cc2c[nH]c3ccccc23)NC1=S (stereo unspecified) [Necrostatin-1] (10 µM), the “number of time points” value was 0.
C[C@@H]1C(=O)O[C@H](C)[C@H]1C[C@@H](O)[C@](C)(O)[C@H]1CC[C@@]2(O)C3=CC(=O)[C@@H]4C[C@@H](O)[C@@H](O)C[C@]4(C)[C@H]3CC[C@]12C [Cyasterone] (10 µM) was tested, and the “number of time points” value was 0.
With CC(c1ccc(-c2cnc3c(-c4ccc(S(N)(=O)=O)c5ccccc45)cnn3c2)cc1)N1CCCC1 (stereo unspecified) (2.5 µM) the “number of time points” value was 0.
CCn1c(=O)c(-c2ccc(-c3cncc(C)n3)cc2Cl)cc2cnc(NCCC3CCN(C)CC3)nc21 (10 µM) was tested, and the “number of time points” value was 0.
For O=C(O)c1cc(O)ccc1O [2,5-Dihydroxybenzoic acid] (10 µM), the “number of time points” value was 0.
CC(=NNC(=O)c1ccc(C)c(Br)c1)c1ccc(O)cc1O [mTOR inhibitor-1] (2.5 µM) was tested, and the “number of time points” value was 0.
Nc1ncnc2c1ncn2[C@@H]1O[C@H](CO)C[C@H]1O [Cordycepin] (10 µM) was tested, and the “number of time points” value was 0.
In the case of C=CC(=O)Nc1cc2c(Nc3ccc(OCc4ccccn4)c(Cl)c3)ncnc2cc1OCCN1CCOCC1 (10 µM), the “number of time points” value was 0.
For Cc1ccc(S(=O)(=O)Nc2ccccc2C=Nc2ccccc2NS(=O)(=O)c2ccc(C)cc2)cc1 (10 µM), the “number of time points” value was 0.
In the case of CCOc1cc(C(=O)N2CCC(N3CCN(C)CC3)CC2)ccc1Nc1ncc2c(n1)N(C1CCCC1)c1ccccc1C(=O)N2C (10 µM), the “number of time points” value was 0.
Cn1cnc(-c2cc3nccc(Oc4ccc(NC(=S)NC(=O)Cc5ccccc5)cc4F)c3s2)c1 [MGCD-265 analog] (10 µM) was tested, and the “number of time points” value was 0.
With Cn1c(=O)c(F)c(Nc2ccc(I)cc2F)c2c(=O)n(C[C@@H](O)CO)cnc21 (10 µM) the “number of time points” value was 0.
In the case of Nc1ncnc2c1c(-c1ccc(Oc3ccccc3)cc1)nn2C1CCNCC1 [N-piperidine Ibrutinib (hydrochloride)] (10 µM), the “number of time points” value was 0.
In the case of Cc1csc(-c2nnc(Nc3ccc(Oc4ncccc4-c4ccnc(N)n4)cc3)c3ccccc23)c1 (2.5 µM), the “number of time points” value was 0.
In the case of O=C(O)CCc1ccc(O)c(O)c1 [Dihydrocaffeic acid] (10 µM), the “number of time points” value was 0.
With COCCOc1cnc(Sc2cc(C)c(-c3csc(NC(=O)c4ccncc4)n3)c(C)c2)cn1 [T-1101 (tosylate)] (2.5 µM) the “number of time points” value was 0.
Cc1cc(NC(=O)c2cccc(NC(=O)/C=C/CN(C)C)c2)ccc1Nc1nccc(-c2cccnc2)n1 (10 µM) was tested, and the “number of time points” value was 0.
With Cc1c(NC(=O)OC[C@@H]2COCCN2)cn2ncnc(Nc3ccc4c(cnn4Cc4cccc(F)c4)c3)c12 (10 µM) the “number of time points” value was 0.
Cc1ccc(-c2c(C(=O)CF)n(CCCO)c3ncnc(N)c23)cc1 (10 µM) was tested, and the “number of time points” value was 0.
For Cc1ccc(-c2c(C(=O)CCl)n(CCCO)c3ncnc(N)c23)cc1 (10 µM), the “number of time points” value was 0.
In the case of COc1cc(F)c(F)c(Nc2ccc(I)cc2F)c1NS(=O)(=O)C1(C[C@H](O)CO)CC1 [Refametinib] (10 µM), the “number of time points” value was 0.
For CCN(CC)c1ccc2cc(C(=O)N3CCN(C(=O)C4=Cc5c(Br)cccc5S4(=O)=O)CC3)c(=O)oc2c1 (2 µM), the “number of time points” value was 0.
COc1ccc(C(=C2C(=O)Nc3ccccc32)c2ccc(OC)cc2)cc1 (10 µM) was tested, and the “number of time points” value was 0.
With N#Cc1ccc2ncnc(NC3CCC(N4CCOCC4)CC3)c2c1 (stereo unspecified) (10 µM) the “number of time points” value was 0.
With NCCN1CCN(C/C=C/C(=O)N2CCC[C@@H](n3nc(-c4ccc(Oc5ccccc5)cc4)c4c(N)ncnc43)C2)CC1 [Ibrutinib-MPEA] (10 µM) the “number of time points” value was 0.
CN(CC(=O)N(Cc1ccc(C2CCCCC2)cc1)c1ccc(C(=O)O)cc1)S(=O)(=O)c1c(F)c(F)c(F)c(F)c1F (2.5 µM) was tested, and the “number of time points” value was 0.
With CCn1c(C(=O)N(C2CC2)C2CC2)cc2c3c(ncn3C)c(Nc3cc(C)n(C)n3)nc21 (10 µM) the “number of time points” value was 0.
For CC(C)CN(CC(=O)N1CCN(CC(OCc2ccc3ccccc3c2)c2ccc(Cl)cc2Cl)CC1)CC(C)C (stereo unspecified) [LYN-1604 (dihydrochloride)] (2.5 µM), the “number of time points” value was 0.
For COc1ccc2[nH]cc(/C=C3\C(=O)Nc4ccc(NC(=O)CCN5CCCCC5)cc43)c2c1 (2.5 µM), the “number of time points” value was 0.
With CC(C)=CC(=O)CCC(=O)N1CCN(Cc2cc3nc(-c4cccc5[nH]ncc45)nc(N4CCOCC4)c3s2)CC1 (10 µM) the “number of time points” value was 0.
